The target in assay [1] is aminoterminal myc-tagged Rnf40 (UniProt O75150). The assay is described as follows: co-IP; whole cell extracts of transfected HEK293T cells containing aminoterminal myc-tagged Rnf40 and Egr2 fragments; precipitation with anti-myc antibodies; western blot.
The target in a further assay is Egr2 (UniProt P51774). The experiment in a line: co-IP; whole cell extracts of transfected HEK293T cells diluted in TEN buffer; precipitation with anti-Egr2 antibodies (pre-immune serum as control) and protein A sepharose overnight at 4°C; western blot for Rnf40, Rnf20, myc or HA. On the technique in general: A western blot detects proteins with antibodies after separation by electrophoresis.

Results are given in words; binding and its absence hold for the method and conditions named. In cells and extracts the contact can be indirect. A result given as binding can be weak or reduced; the word gives no strength.

Take “Egr2, amino acids 1-216 (from UniProt P51774-1) (domain or fragment)”: in assay [1], the binding entry is “no binding”. For the substance “Egr2, amino acids 197-420 (from UniProt P51774-2) (domain or fragment)”, the binding result in assay [1] is reported as “binds”. Consider “HA-tagged Rnf20, amino acids 1-160 (from UniProt Q5VTR2 1-160) (domain or fragment)”, for which, in the assay with Egr2, the binding entry is given as “no binding”. The same measure, in the same setting: the same measure for “HA-tagged Rnf20, amino acids 1-550 (from UniProt Q5VTR2 1-550) (domain or fragment)”: “no binding”; for “HA-tagged Rnf20, amino acids 140-550 (from UniProt Q5VTR2 140-550) (domain or fragment)”: “no binding”; for “HA-tagged Rnf20, amino acids 530-975 (from UniProt Q5VTR2 530-975) (domain or fragment)”: “binds”.

Turning to Rnf20 (from UniProt Q5VTR2 1-975), the binding result with Egr2 was “binds”. Same read-out and setting: the same measure for Rnf40 (from UniProt O75150-1 1-1001): “binds”; for “myc-tagged Rnf40, amino acids 160-620 (from UniProt O75150-1 160-620) (domain or fragment)”: “binds”; for “myc-tagged Rnf40, amino acids 600-800 (from UniProt O75150-1 600-800) (domain or fragment)”: “no binding”. On the same count and under the same terms, as for “myc-tagged Rnf40, amino acids 780-1001 (from UniProt O75150-1 780-1001) (domain or fragment)”, the entry is “no binding”; as for “myc-tagged Rnf40, first 180 amino acids (from UniProt O75150-1 1-180) (domain or fragment)”, “binds”. For “myc-tagged Rnf40, first 620 amino acids (from UniProt O75150-1 1-620) (domain or fragment)”, in the assay with Egr2, the binding entry is listed as “binds”.

The values are drawn from publication PMC7498331.
